Assay: molar heat capacity at constant pressure
Settings: 101.33 kPa, Metastable crystal, DSC

O=C(c1ccccc1)c1ccccc1 [benzophenone]
Settings | molar heat capacity at constant pressure [J/K/mol]
214.2 K | 168.8
218.1 K | 171.5
222.1 K | 174.4
226.1 K | 176.9
230.1 K | 179.8
234.1 K | 181.4
238 K | 183.6
242 K | 187.8
246 K | 191.3
250 K | 193.4
254 K | 196.9
258 K | 198.8
262.1 K | 201.9
266.1 K | 204.7
270.1 K | 207.6
274.1 K | 209.9
278.1 K | 213.5
282.1 K | 215.6
286.1 K | 218.8
290.1 K | 221.5
294.1 K | 224

Source: the NIST ThermoML archive (doi:10.1021/acs.jced.6b00523)
